Assay results as given in PubChem BioAssay AID504467 (National Center for Advancing Translational Sciences (NCATS), 2011).
The campaign covered roughly 330,000 compounds. About 7,700 (2.3%) were called active. The inconclusive results got no clear call from the source; some entries with a clear call stand among them for comparison. The call rests on the fitted dose curve; in most records, active means well fitted inhibition curve with a large enough effect; inconclusive means small, poorly fitted or top-dose-only effect, or effect the other way; inactive means flat fitted curve, though single readings scatter. Potencies of inconclusive entries are doubtful fits and often do not repeat.

assay: qHTS screen for small molecules that inhibit ELG1-dependent DNA repair in human embryonic kidney (HEK293T) cells expressing luciferase-tagged ELG1; settings: HEK293T ELG1-luciferase reporter, luminescence, 16 h, DNA damage induced by 5-fluorouridine; series mostly up to 46.1 µM; further: nearly all actives have a fitted effect of over 55% in size
Method in brief: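 Reporter activity after DNA damage by 5-fluorouridine is monitored. Compound-treated cells incubate 16 hr at 37 °C, then ONE-Glo is added for 30 min before luminescence reading.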
Potency means the concentration at half of the fitted maximal effect.

Row | SMILES | Potency
1 | Cc1cc(C)cc(N=Cc2ccc([N+](=O)[O-])s2)c1 | inconclusive: 32.6 µM [inhibitor, partial curve, poor fit]
2 | O=C(COc1ccccc1)Nc1ccccc1C(=O)NCc1ccco1 | inconclusive: 29.1 µM [activator, partial curve, poor fit]
3 | CCOC(=O)C1=C(COC(=O)Cc2ccc(Cl)cc2)NC(=O)NC1C (centres undefined) | inconclusive: 23.1 µM [activator, partial curve, poor fit]
4 | COc1cccc(Cn2cnc3c(NS(=O)(=O)c4ccc(Cl)cc4Cl)c(C)c(C)cc32)c1 | inactive
5 | C=CC[C@H](CC(=O)N(CCO)Cc1ccccc1)C(=O)N[C@@H](C)COC(=O)[C@@H](CC=C)Cc1ccc(F)cc1 | inactive
6 | COc1ccc(C(=O)OCC(=O)N2CCCCC2)cc1[N+](=O)[O-] | inconclusive: 25.9 µM [activator, partial curve, poor fit]
7 | O=C(Nc1cccc(C(=O)NC2CC2)c1)c1ccc(Cl)c(S(=O)(=O)N2CCOCC2)c1 | active: 12.6 µM
8 | O=C(Cc1ccc(Cl)cc1)NNC(=O)C(=O)NC1CCCCC1 | inactive
9 | COc1ccccc1NS(=O)(=O)c1ccc(O)cc1 | inactive
10 | Cc1ccc2nc(N(CCCN(C)C)C(=O)c3ccco3)sc2c1 | inconclusive: 29.1 µM [activator, single point]
11 | COc1ccc(NC(=S)NNc2ccc(C(=O)O)cc2)cc1 | inconclusive: 29.1 µM [activator, single point]
12 | O=C(Nc1c(-c2ccccc2)nc2ccccn12)c1ccccc1 | inactive
13 | O=C(C1=C[C@H](c2csc3ccccc23)C[C@H](OCCCCO)O1)N1CCOCC1 | inconclusive: 29.1 µM [inhibitor, single point]
14 | CCOCCCNC(=O)c1cccc(NC(=O)C2=C(C)OCCS2)c1 | inactive
15 | CC(C)c1nc(SCC(=O)NC2CCCC2)c2c(=O)n(C)c(=O)n(C)c2n1 | inactive
16 | O=C1C(=O)c2ccccc2C(O)=C1CCCCl | active: 18.3 µM
17 | Cc1ccc(-c2nc(-c3ccccn3)no2)cc1 | inconclusive: 0.0517 µM [activator, full curve, poor fit]
18 | O=C(Cn1ccc2ccccc2c1=O)NCC(=O)N1CCCCC1 | inactive
19 | CCOc1ccc(NS(=O)(=O)c2ccc3ncsc3c2)cc1 | inactive
20 | CCOC(=O)/C(=C\c1cn(C)c2ccccc12)[N+](=O)[O-] | inconclusive: 29.1 µM [activator, single point]
21 | O=C(N/N=C/c1ccc[nH]1)c1ccc(COc2cccc3cccnc23)cc1 | inconclusive: 29.1 µM [inhibitor, single point]
22 | Cc1ccc(CN(C(=O)c2cc3ccccc3oc2=O)C2CCS(=O)(=O)C2)cc1 (centres undefined) | inconclusive: 20.6 µM [activator, partial curve]

Part of the list above, with tabs:
Row	SMILES	Potency
6	COc1ccc(C(=O)OCC(=O)N2CCCCC2)cc1[N+](=O)[O-]	inconclusive: 25.9 µM [activator, partial curve, poor fit]
11	COc1ccc(NC(=S)NNc2ccc(C(=O)O)cc2)cc1	inconclusive: 29.1 µM [activator, single point]
14	CCOCCCNC(=O)c1cccc(NC(=O)C2=C(C)OCCS2)c1	inactive

(further entries)

Row | SMILES | Potency
23 | O=C(O)[C@H]1CCCC[C@H]1C(=O)Nc1cc([N+](=O)[O-])ccc1F | inconclusive: 16.4 µM [activator, partial curve, poor fit]
24 | O=C(Nc1ccc(Cl)cn1)Nc1ccccc1Cl | inconclusive: 8.2 µM [activator, partial curve]
25 | Cc1cccc(NS(=O)(=O)c2cc(NC(=O)CC(=O)c3ccc([N+](=O)[O-])cc3)ccc2C)c1 | inconclusive: 25.9 µM [inhibitor, single point]
26 | CCCc1nn(C)c2c(=O)[nH]c(-c3cc(S(=O)(=O)Nc4ccc(NC(C)=O)cc4)ccc3OCC)nc12 | inconclusive: 16.4 µM [inhibitor, partial curve]
27 | O=C(Nc1ccccc1N1CCCCC1)c1ccc(-c2cccc(Cl)c2)o1 | inactive
28 | O=C(COc1ccc(F)cc1)Nc1nnc(C2CC2)s1 | inconclusive: 25.9 µM [activator, single point]
29 | O=C(NC(=S)Nc1ccc(S(=O)(=O)N2CCCC2)cc1)C1CC1 | inconclusive: 29.1 µM [inhibitor, single point]
30 | CC(=O)Nc1ccc(NC(=O)c2cc(=O)c3ccccc3o2)cc1 | inconclusive: 5.17 µM [inhibitor, partial curve, poor fit]
31 | CC(=O)Nc1cccc(NC(=S)Nc2cccc(Cl)c2C)c1 | inconclusive: 4.61 µM [inhibitor, single point]
32 | CN1/C(=C\C(=S)NC(=O)c2cccc(Br)c2)C(C)(C)c2ccccc21 | inconclusive: 11.6 µM [inhibitor, partial curve, poor fit]
33 | Cc1ccccc1NC(=S)NNC(=O)c1ccco1 | inconclusive: 16.4 µM [activator, partial curve]
34 | CN1c2ccsc2C(O)=C(C(=O)Nc2ccccc2)S1(=O)=O | inconclusive: 1.84 µM [activator, full curve, poor fit]
35 | Cc1ccc(-c2cccc(C3CC=CC4C3C(=O)N(Cc3ccccc3)C4c3ccc(C(F)(F)F)cc3)c2)cc1 (centres undefined) | inconclusive: 23.1 µM [inhibitor, single point]
36 | Cc1ccccc1-c1cc(C(=O)NCc2cccs2)n(CC2CC(c3cccnc3)=NO2)n1 (centres undefined) | inconclusive: 11.6 µM [inhibitor, partial curve]
37 | COCCn1c(-c2ccccc2)csc1=Nc1cccnc1 | inconclusive: 20.6 µM [inhibitor, single point]
38 | CCOCCCNC(=O)c1ccccc1OC1CCN(S(C)(=O)=O)CC1 | inactive
39 | COc1ccc(NC2=NC(=S)N(c3cccc(C)c3)C23CCCCC3)cc1 | inconclusive: 20.6 µM [activator, single point]
40 | Clc1ccc(Cl)c(OCc2cc(-c3ccccc3Cl)on2)c1 | inconclusive: 9.2 µM [activator, partial curve]
41 | COCCCNCCCOc1ccc(C(C)(C)c2ccccc2)cc1 | inactive
42 | Cn1cnc(NCc2ccccc2)c1[N+](=O)[O-] | inconclusive: 29.1 µM [activator, partial curve, poor fit]
43 | Cc1nc2ccc(C(=O)O)cc2nc1C | inconclusive: 23.1 µM [activator, partial curve, poor fit]
44 | O=C(NCCC1=CCCCC1)c1cc(-c2ccccn2)nc2ccccc12 | inactive
